ChEMBL document CHEMBL5465560, “Selectivity Literature for EUbOPEN Chemogenomic Library” (2024)

Amino acid sequences for entries named in this document (tags omitted). A change or cut given only in a name is not applied to a line headed by its entry.
UniProt Q00526: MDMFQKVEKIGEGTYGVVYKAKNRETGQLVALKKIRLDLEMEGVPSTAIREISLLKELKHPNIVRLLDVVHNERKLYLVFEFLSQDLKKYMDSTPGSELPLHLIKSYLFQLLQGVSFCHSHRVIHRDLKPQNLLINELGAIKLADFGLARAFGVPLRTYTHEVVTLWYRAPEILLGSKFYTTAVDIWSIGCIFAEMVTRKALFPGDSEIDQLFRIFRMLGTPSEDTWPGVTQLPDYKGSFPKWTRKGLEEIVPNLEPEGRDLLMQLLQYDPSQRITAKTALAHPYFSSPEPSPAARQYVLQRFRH
UniProt Q7KZI7: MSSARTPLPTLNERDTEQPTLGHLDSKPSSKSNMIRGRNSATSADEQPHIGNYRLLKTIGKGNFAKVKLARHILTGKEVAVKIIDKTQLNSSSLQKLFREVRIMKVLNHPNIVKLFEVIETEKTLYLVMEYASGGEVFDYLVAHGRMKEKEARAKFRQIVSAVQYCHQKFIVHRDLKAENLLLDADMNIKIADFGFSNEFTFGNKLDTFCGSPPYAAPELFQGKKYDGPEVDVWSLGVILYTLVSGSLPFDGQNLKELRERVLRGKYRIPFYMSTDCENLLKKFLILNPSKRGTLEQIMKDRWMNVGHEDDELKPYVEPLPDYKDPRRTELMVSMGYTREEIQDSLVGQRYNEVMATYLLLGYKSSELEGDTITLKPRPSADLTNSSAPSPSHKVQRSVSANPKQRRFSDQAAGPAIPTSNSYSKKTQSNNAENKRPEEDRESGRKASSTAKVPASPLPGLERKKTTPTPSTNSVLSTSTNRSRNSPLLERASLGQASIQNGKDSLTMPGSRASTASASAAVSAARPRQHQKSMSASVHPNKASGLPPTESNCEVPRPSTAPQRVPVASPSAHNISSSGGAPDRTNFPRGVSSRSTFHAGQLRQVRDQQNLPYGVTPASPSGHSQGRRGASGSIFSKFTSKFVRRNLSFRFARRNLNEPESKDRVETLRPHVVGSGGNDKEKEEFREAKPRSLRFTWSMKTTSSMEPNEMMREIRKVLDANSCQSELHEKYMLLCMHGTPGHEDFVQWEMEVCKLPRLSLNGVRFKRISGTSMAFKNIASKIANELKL
UniProt P51955: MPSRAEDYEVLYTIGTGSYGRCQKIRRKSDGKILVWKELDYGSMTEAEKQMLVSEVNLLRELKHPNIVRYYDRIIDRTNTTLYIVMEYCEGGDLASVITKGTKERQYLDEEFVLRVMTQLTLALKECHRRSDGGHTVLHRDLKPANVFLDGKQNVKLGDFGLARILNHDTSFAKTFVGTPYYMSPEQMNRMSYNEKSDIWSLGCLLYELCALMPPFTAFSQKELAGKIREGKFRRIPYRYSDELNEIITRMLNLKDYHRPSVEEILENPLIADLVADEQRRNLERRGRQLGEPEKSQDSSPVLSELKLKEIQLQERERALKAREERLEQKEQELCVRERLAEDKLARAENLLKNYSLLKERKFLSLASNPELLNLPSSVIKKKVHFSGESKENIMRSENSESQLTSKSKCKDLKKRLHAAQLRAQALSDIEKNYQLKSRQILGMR
UniProt Q13554, whole entry: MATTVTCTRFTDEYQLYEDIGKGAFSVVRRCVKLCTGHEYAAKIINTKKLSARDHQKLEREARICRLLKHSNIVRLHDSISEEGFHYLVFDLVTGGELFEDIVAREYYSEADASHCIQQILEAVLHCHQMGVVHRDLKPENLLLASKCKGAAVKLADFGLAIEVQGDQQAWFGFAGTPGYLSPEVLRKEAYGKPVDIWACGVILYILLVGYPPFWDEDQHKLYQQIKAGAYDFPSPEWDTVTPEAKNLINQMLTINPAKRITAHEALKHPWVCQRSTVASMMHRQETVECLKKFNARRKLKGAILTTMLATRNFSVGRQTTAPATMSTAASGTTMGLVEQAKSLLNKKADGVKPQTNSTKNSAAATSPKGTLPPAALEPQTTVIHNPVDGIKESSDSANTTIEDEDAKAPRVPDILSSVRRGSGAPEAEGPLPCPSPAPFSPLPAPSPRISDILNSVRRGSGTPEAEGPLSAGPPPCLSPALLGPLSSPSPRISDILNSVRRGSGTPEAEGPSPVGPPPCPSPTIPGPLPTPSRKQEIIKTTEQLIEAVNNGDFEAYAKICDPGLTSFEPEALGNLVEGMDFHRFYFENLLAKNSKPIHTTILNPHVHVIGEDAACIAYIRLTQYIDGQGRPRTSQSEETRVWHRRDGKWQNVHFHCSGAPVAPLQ
UniProt P78368: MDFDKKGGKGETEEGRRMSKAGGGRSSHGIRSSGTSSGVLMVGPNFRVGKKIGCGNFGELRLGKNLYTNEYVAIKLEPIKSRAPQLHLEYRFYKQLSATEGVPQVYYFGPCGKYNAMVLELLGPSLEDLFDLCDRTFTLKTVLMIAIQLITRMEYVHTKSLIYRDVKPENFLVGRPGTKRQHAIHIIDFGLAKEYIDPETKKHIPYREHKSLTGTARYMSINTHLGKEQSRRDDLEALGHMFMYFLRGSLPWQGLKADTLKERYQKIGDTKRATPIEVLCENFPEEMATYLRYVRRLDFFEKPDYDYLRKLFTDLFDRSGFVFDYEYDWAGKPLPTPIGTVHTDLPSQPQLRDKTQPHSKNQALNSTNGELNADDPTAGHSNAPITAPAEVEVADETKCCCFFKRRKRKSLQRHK
UniProt Q8TDC3: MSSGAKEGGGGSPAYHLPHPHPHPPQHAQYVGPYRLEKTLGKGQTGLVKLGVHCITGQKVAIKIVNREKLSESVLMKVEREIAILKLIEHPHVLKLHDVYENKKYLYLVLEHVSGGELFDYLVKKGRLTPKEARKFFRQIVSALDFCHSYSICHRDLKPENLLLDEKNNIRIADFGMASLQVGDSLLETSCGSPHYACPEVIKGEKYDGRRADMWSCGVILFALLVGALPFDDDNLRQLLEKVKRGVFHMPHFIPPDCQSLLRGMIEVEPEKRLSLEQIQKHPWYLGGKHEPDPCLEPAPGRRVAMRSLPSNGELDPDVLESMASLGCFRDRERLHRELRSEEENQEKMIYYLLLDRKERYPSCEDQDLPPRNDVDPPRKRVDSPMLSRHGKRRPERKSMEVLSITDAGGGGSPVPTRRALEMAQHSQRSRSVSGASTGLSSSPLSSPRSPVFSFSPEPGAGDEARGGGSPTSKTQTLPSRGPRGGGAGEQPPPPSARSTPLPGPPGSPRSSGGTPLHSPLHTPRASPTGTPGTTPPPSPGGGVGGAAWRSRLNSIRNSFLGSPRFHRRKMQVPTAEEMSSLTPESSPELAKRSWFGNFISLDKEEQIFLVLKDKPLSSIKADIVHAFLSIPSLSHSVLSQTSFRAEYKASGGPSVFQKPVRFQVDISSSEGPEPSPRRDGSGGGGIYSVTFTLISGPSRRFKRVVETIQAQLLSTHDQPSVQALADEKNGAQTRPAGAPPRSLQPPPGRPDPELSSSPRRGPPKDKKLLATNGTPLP
UniProt P53350, whole entry: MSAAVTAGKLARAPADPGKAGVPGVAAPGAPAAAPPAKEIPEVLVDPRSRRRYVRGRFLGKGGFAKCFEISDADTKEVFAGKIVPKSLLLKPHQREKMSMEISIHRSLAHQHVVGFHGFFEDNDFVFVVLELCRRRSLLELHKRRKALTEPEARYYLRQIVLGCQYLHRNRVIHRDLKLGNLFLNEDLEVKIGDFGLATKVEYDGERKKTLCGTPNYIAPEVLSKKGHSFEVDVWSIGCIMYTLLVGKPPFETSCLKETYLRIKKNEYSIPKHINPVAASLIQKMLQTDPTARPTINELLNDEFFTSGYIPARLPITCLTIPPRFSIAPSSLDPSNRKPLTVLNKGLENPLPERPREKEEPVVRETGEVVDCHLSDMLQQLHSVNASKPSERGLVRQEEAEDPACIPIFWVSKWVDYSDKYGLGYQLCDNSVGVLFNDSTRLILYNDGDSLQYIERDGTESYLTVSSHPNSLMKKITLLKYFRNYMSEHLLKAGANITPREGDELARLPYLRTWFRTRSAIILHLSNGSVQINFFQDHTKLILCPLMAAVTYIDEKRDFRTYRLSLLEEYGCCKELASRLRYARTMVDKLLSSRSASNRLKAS
UniProt P51817: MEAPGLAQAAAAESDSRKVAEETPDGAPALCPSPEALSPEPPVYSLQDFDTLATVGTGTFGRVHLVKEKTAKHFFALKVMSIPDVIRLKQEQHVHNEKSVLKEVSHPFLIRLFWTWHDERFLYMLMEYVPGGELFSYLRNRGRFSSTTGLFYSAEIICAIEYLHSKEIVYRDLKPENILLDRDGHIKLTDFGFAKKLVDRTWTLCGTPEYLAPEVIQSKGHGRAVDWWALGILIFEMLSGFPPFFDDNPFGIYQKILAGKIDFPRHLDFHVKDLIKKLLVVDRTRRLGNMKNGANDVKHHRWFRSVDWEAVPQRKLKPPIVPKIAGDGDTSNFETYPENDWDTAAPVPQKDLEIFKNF
UniProt Q13523: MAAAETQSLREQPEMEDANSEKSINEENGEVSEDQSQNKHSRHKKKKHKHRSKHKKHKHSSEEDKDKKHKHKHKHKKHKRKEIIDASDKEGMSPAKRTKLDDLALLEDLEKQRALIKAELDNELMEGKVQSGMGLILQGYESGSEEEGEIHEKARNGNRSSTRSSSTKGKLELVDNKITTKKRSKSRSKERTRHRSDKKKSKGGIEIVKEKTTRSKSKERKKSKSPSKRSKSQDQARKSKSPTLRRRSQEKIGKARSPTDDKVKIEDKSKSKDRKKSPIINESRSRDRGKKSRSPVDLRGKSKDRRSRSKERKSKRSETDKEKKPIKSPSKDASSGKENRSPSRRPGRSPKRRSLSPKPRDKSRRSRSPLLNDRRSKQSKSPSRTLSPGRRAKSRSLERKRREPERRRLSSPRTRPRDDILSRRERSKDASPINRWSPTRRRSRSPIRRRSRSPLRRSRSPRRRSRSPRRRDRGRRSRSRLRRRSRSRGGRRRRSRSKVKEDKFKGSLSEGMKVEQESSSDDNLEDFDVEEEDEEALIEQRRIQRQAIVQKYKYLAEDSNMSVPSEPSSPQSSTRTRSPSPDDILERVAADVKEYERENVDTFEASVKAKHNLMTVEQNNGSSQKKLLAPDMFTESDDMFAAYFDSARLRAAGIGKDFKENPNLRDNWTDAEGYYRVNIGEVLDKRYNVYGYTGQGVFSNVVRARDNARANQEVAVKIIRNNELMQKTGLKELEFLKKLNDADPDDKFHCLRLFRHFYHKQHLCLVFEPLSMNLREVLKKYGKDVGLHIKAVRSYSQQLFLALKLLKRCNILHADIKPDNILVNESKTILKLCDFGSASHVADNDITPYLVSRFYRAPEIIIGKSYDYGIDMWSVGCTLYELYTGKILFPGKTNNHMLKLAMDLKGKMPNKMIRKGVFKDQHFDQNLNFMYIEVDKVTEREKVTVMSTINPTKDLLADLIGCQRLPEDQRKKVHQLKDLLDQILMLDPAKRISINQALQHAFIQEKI
UniProt P16234: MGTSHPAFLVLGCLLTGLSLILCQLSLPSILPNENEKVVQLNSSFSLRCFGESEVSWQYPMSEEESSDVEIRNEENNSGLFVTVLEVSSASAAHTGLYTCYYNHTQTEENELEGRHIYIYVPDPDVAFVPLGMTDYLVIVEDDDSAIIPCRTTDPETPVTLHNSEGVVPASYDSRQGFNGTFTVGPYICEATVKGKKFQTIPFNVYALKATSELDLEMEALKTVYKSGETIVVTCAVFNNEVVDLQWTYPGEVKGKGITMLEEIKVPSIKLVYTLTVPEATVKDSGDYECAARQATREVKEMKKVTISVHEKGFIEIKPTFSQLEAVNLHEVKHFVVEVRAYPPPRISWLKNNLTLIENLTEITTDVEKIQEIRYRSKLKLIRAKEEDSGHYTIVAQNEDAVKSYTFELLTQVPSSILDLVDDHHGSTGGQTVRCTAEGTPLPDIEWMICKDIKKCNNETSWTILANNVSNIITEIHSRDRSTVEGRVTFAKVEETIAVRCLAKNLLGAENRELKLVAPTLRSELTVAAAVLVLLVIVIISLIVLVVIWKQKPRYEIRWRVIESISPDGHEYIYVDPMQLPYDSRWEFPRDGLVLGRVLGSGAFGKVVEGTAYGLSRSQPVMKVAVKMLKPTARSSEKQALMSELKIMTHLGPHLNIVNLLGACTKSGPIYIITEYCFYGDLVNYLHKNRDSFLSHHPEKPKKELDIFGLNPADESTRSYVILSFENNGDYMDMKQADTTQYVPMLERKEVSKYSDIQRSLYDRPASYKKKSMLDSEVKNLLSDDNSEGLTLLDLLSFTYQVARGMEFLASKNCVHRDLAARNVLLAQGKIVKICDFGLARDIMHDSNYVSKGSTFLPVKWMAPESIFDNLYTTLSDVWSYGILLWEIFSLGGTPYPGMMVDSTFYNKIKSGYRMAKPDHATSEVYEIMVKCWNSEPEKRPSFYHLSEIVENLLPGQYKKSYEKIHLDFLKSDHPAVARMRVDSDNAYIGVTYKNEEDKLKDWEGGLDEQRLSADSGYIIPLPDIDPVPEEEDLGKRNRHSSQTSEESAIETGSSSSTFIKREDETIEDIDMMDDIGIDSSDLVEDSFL

Assays:
Settings in all cases: at 1 µM
[1] = molecular target: Phosphatidylinositol 4-phosphate 3-kinase C2 domain-containing subunit beta (Homo sapiens) (UniProt O00750); test: Selectivity interaction (KinomeScan (DiscoverX)) EUB0001581a PIK3C2B
[2] = system: Tyrosine-protein kinase ABL1 (Homo sapiens), P00519 [F317I]; test: (§1) Selectivity interaction (KinomeScan (DiscoverX)) EUB0001581a ABL1
[3] = molecular target: MAP kinase-interacting serine/threonine-protein kinase 1 (Homo sapiens) (UniProt Q9BUB5); test: Selectivity interaction (KinomeScan (DiscoverX)) EUB0001581a MKNK1
[4] = molecular target: Mitogen-activated protein kinase 14 (Homo sapiens, UniProt Q16539); test: Selectivity interaction (KinomeScan (DiscoverX)) EUB0001581a MAPK14
[5] = molecular target: Ephrin type-A receptor 6 (Homo sapiens) (UniProt Q9UF33)
[6] = molecular target: Ribosomal protein S6 kinase alpha-3 (Homo sapiens, UniProt P51812)
[7] = molecular target: STE20/SPS1-related proline-alanine-rich protein kinase (Homo sapiens) (UniProt Q9UEW8); test: Selectivity interaction (KinomeScan (DiscoverX)) EUB0001581a STK39
[8] = molecular target: Serine/threonine-protein kinase PAK 6 (Homo sapiens) (UniProt Q9NQU5); test: Selectivity interaction (KinomeScan (DiscoverX)) EUB0001581a PAK6
[9] = molecular target: 5'-AMP-activated protein kinase catalytic subunit alpha-2 (Homo sapiens) (UniProt P54646); test: Selectivity interaction (KinomeScan (DiscoverX)) EUB0001581a PRKAA2
[10] = molecular target: Cyclin-dependent kinase 3 (Homo sapiens) (UniProt Q00526); test: Selectivity interaction (KinomeScan (DiscoverX)) EUB0001581a CDK3
[11] = molecular target: Receptor-interacting serine/threonine-protein kinase 2 (Homo sapiens, UniProt O43353); test: Selectivity interaction (KinomeScan (DiscoverX)) EUB0001581a RIPK2
[12] = molecular target: Serine/threonine-protein kinase MARK2 (Homo sapiens) (UniProt Q7KZI7); test: Selectivity interaction (KinomeScan (DiscoverX)) EUB0001581a MARK2
[13] = molecular target: Serine/threonine-protein kinase Nek2 (Homo sapiens) (UniProt P51955); test: Selectivity interaction (KinomeScan (DiscoverX)) EUB0001581a NEK2
[14] = molecular target: Calcium/calmodulin-dependent protein kinase type II subunit beta (Homo sapiens) (UniProt Q13554); test: Selectivity interaction (KinomeScan (DiscoverX)) EUB0001581a CAMK2B
[15] = molecular target: Cyclin-dependent kinase 2 (Homo sapiens, UniProt P24941); test: Selectivity interaction (KinomeScan (DiscoverX)) EUB0001581a CDK2
[16] = molecular target: Casein kinase I isoform gamma-2 (Homo sapiens) (UniProt P78368); test: Selectivity interaction (KinomeScan (DiscoverX)) EUB0001581a CSNK1G2
[17] = molecular target: Serine/threonine-protein kinase BRSK1 (Homo sapiens) (UniProt Q8TDC3); test: Selectivity interaction (KinomeScan (DiscoverX)) EUB0001581a BRSK1
[18] = molecular target: Mitogen-activated protein kinase kinase kinase kinase 3 (Homo sapiens) (UniProt Q8IVH8); test: Selectivity interaction (KinomeScan (DiscoverX)) EUB0001581a MAP4K3
[19] = molecular target: Uncharacterized serine/threonine-protein kinase SBK3 (Homo sapiens) (UniProt P0C264); test: Selectivity interaction (KinomeScan (DiscoverX)) EUB0001581a SBK3
[20] = molecular target: Ribosomal protein S6 kinase alpha-2 (Homo sapiens) (UniProt Q15349); test: Selectivity interaction (KinomeScan (DiscoverX)) EUB0001581a RPS6KA2
[21] = molecular target: Serine/threonine-protein kinase D3 (Homo sapiens) (UniProt O94806); test: Selectivity interaction (KinomeScan (DiscoverX)) EUB0001581a PRKD3
[22] = molecular target: Serine/threonine-protein kinase PLK1 (Homo sapiens, UniProt P53350); test: Selectivity interaction (KinomeScan (DiscoverX)) EUB0001581a PLK1
[23] = molecular target: Receptor-interacting serine/threonine-protein kinase 4 (Homo sapiens) (UniProt P57078); test: Selectivity interaction (KinomeScan (DiscoverX)) EUB0001581a RIPK4
[24] = molecular target: cAMP-dependent protein kinase catalytic subunit PRKX (Homo sapiens) (UniProt P51817); test: Selectivity interaction (KinomeScan (DiscoverX)) EUB0001581a PRKX
[25] = molecular target: Tyrosine-protein kinase Lyn (Homo sapiens, UniProt P07948); test: Selectivity interaction (KinomeScan (DiscoverX)) EUB0001581a LYN
[26] = molecular target: Membrane-associated tyrosine- and threonine-specific cdc2-inhibitory kinase (Homo sapiens) (UniProt Q99640); test: Selectivity interaction (KinomeScan (DiscoverX)) EUB0001581a PKMYT1
[27] = molecular target: Serine/threonine-protein kinase PRP4 homolog (Homo sapiens) (UniProt Q13523); test: Selectivity interaction (KinomeScan (DiscoverX)) EUB0001581a PRPF4B
[28] = molecular target: Serine/threonine-protein kinase Nek4 (Homo sapiens) (UniProt P51957); test: Selectivity interaction (KinomeScan (DiscoverX)) EUB0001581a NEK4
[29] = molecular target: Fibroblast growth factor receptor 3 (Homo sapiens, UniProt P22607); test: (§2) Selectivity interaction (KinomeScan (DiscoverX)) EUB0001581a FGFR3
[30] = system: Fibroblast growth factor receptor 3 (Homo sapiens), P22607 [G697C]; test: as §2
[31] = system: Tyrosine-protein kinase ABL1 (Homo sapiens), P00519 [F317L]; test: as §1
[32] = molecular target: Homeodomain-interacting protein kinase 2 (Homo sapiens, UniProt Q9H2X6); test: Selectivity interaction (KinomeScan (DiscoverX)) EUB0001581a HIPK2
[33] = molecular target: Receptor tyrosine-protein kinase erbB-2 (Homo sapiens, UniProt P04626); test: Selectivity interaction (KinomeScan (DiscoverX)) EUB0001581a ERBB2
[34] = molecular target: Serine/threonine-protein kinase 36 (Homo sapiens) (UniProt Q9NRP7); test: Selectivity interaction (KinomeScan (DiscoverX)) EUB0001581a STK36
[35] = molecular target: Serine/threonine-protein kinase TBK1 (Homo sapiens) (UniProt Q9UHD2); test: Selectivity interaction (KinomeScan (DiscoverX)) EUB0001581a TBK1
[36] = molecular target: Inhibitor of nuclear factor kappa-B kinase subunit beta (Homo sapiens) (UniProt O14920); test: Selectivity interaction (KinomeScan (DiscoverX)) EUB0001581a IKBKB
[37] = molecular target: Platelet-derived growth factor receptor alpha (Homo sapiens, UniProt P16234); test: Selectivity interaction (KinomeScan (DiscoverX)) EUB0001581a PDGFRA
[38] = molecular target: Phosphatidylinositol 5-phosphate 4-kinase type-2 beta (Homo sapiens) (UniProt P78356); test: Selectivity interaction (KinomeScan (DiscoverX)) EUB0001581a PIP4K2B
[39] = molecular target: Serine/threonine-protein kinase MAK (Homo sapiens) (UniProt P20794); test: Selectivity interaction (KinomeScan (DiscoverX)) EUB0001581a MAK

SMILES: C[C@@H]1C[C@H](N)C[C@H](c2ccncc2NC(=O)c2ccc(F)c(-c3c(F)cccc3F)n2)C1
- % of control [1]: 88%
- % of control [2]: 100%
- % of control [3]: 74%
- % of control [4]: 100%
- % of control [5]: 95%
- % of control [6]: 95%
- % of control [7]: 84%
- % of control [8]: 74%
- % of control [9]: 85%
- % of control [10]: 100%
- % of control [11]: 100%
- % of control [12]: 81%
- % of control [13]: 100%
- % of control [14]: 87%
- % of control [15]: 91%
- % of control [16]: 73%
- % of control [17]: 100%
- % of control [18]: 100%
- % of control [19]: 78%
- % of control [20]: 80%
- % of control [21]: 34%
- % of control [22]: 87%
- % of control [23]: 100%
- % of control [24]: 100%
- % of control [25]: 100%
- % of control [26]: 100%
- % of control [27]: 100%
- % of control [28]: 100%
- % of control [29]: 100%
- % of control [30]: 100%
- % of control [31]: 100%
- % of control [32]: 52%
- % of control [33]: 92%
- % of control [34]: 97%
- % of control [35]: 100%
- % of control [36]: 100%
- % of control [37]: 100%
- % of control [38]: 87%
- % of control [39]: 91%
